Laboratory results reported in article PMC3206951.
These are yes or no findings as the source states them, for the method shown. In cells and extracts the contact can be indirect. Some entries that bind do so weakly or less than the wild type. Tags and fused reporters may be left off the sequences shown.

Sequences of proteins named here, by UniProt entry; tags and fusion partners are left off.
UniProt P54647: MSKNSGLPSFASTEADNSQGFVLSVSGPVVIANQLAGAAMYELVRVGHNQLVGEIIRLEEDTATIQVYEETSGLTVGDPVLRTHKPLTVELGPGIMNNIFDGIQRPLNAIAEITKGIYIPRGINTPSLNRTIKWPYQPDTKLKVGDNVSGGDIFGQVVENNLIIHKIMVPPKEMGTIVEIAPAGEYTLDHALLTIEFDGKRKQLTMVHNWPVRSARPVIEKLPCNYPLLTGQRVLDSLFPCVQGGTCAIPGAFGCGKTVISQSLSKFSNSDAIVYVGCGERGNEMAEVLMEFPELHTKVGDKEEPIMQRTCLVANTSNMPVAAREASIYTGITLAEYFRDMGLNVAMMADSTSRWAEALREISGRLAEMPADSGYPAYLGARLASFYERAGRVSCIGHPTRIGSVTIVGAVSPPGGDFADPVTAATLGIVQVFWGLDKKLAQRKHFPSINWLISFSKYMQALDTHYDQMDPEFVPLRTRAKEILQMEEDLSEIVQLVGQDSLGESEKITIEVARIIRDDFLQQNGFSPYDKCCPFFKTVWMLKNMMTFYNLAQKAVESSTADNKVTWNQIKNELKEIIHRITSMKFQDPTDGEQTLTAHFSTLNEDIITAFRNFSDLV

Experiments:
[1] = target: T1, GST-PIPK_(370 – 828) (GST-tagged PIPK domain of RpkA, residues 370 – 828) (D. discoideum) (UniProt Q86D86); assay: pull-down; GST, GST-PIPK(343-805) and GST-PIPK(370-828) incubated with a pre-cleared lysate of rpkA- cells expressing VatM-GFP; 50 mM Tris-HCl pH 7.4, 100 mM NaCl, 0.5% NP40; 3 h or overnight; Western blot with GFP-specific and VatA-specific mAbs; only the target purified
T1 sequence: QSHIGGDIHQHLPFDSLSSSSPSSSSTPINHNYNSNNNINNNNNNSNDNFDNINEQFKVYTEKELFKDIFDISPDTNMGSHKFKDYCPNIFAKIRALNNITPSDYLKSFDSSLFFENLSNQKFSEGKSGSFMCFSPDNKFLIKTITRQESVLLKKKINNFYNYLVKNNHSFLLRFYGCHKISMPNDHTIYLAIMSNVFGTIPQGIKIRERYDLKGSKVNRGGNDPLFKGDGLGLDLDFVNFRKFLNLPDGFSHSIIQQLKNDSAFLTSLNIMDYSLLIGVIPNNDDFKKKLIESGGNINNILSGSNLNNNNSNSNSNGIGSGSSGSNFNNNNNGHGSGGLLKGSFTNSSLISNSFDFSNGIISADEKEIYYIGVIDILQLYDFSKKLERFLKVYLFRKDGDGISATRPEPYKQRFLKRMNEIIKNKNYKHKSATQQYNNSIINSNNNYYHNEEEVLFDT

[2] = target: T2, GST-PIPK_(343 – 805) (GST-tagged PIPK domain of RpkA, residues 343 – 805) (D. discoideum) (UniProt Q86D86); assay: as above
T2 sequence: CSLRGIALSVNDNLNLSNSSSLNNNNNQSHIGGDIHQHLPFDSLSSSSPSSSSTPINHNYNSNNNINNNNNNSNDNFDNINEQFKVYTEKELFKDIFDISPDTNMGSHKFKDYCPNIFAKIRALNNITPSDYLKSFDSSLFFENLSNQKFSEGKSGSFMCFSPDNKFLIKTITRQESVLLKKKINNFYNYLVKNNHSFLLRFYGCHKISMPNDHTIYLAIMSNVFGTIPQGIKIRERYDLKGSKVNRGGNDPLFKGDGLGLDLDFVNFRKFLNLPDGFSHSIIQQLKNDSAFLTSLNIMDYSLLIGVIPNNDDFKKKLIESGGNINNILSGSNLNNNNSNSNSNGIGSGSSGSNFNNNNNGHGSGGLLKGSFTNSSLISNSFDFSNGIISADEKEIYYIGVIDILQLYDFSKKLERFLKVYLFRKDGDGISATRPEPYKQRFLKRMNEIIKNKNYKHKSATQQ

VatA, subunit A of the vacuolar H+-ATPase (from UniProt P54647 1-618)
binding [1]: binds
binding [2]: binds

B1: VatM-GFP (membrane-spanning subunit of the V-ATPase complex, GFP-tagged) (protein, UniProt Q54E04 1-815)
chain: MSFLRPSIWRSSPMQMVQLFVQIEAAHDTVDELGKLGLIQFLDDNEHVNLFQRNFVNEVKRCDDMEKKLKFFEDQVKKEPKLQKLLPDNMLSVVDDDSQMDELEGRFDELESELKQVNANQETLQRNYNELIQLRHVLTKDSVFFQENPNLIEGEGHEHSARSPLLAEDQHVSEVAKQGVKLGFITGVMNTDKMPQFQRSLWRTTRGNNYVKDARIEEEIIDPQTGEETAKTVFIVFFQGERLQQKIKKICESFGANIYDCPDNSFERSNLLQKVTVRITDLYEVLQRSKDHKRQTLAGIVPRLYSWKKKVLLEKSIYHTMNLFDYDVGRKCLIAKGWTPKDKIEEIQLALRTATTRSGALVPSVLSIIKTEGSPPTHFETNKYTSSFQEIVNAYGIAHYREVNPAVLTIVTFPFLFGVMFGDVGHGALLLLSALGLISLEKKLAGKKLNELIQMPFDGRYVLFLMSLFSIYVGFIYNECFSIPMNIFGSQYNLNSTTGLYTYQHTDRVYPVGVDPLWKGAPNELVYYNSFKMKLSIIFGVVQMSVGICFSLLNYLNQKGPIKIVNILTQFVPQMIFLWSIFGYMSVLIILKWVVPYRSFEVDKVDPPFILPTIIAMFLSPGGTPDVVFFSGQGAVQTALLFLALISIPVMLVIKPLFMKRFHFQEVERKKLGHHEEEHDDEALYTGHHGEEFEMGEVFVHQVIHTIEFVLGAVSNTASYLRLWALSLAHSELSSVFWERILIGQVERGNPFLAFVGFGAWLGASVAVLLLMESLSAFLHALRLHWVEFQNKFYIGDGVRFIPYSATRILSEDDE
binding [1]: binds
binding [2]: binds
